# Experimental data: paper PMC8384837
# Substitutions are numbered along the chain they refer to. Some of the results follow. For some of these results: At the low end of the ranking, values are background and their order means little.
# How the values were obtained:
# Settings in all cases: yeast three-hybrid, YBZ-1, SC-Leu-His + 0.5 mM 3-AT, 4 days
# [1] = target: T1, PUM1 PUF domain R3-LYS C935L + R936Y + Q939S (UniProt Q14671)
# T1 sequence: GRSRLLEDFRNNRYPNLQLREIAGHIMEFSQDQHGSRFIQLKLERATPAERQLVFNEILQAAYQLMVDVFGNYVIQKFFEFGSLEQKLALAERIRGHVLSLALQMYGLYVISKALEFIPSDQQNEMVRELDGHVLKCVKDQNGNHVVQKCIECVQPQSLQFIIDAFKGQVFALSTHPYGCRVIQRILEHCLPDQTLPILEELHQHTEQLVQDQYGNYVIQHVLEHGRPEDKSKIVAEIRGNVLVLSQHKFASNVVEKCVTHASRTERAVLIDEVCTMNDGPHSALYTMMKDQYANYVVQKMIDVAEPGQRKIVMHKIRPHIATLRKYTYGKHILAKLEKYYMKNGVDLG
# [2] = target: T2, PUM1 PUF domain R3-MCG C935M + R936C + Q939G (UniProt Q14671)
# T2 sequence: T1 sequence with L108M, Y109C, S112G
# [3] = target: T3, PUM1 PUF domain R3-MPR C935M + R936P + Q939R (UniProt Q14671)
# T3 sequence: T1 sequence with L108M, Y109P, S112R
# [4] = target: T4, PUM1 PUF domain R3-MRE C935M + Q939E (Homo sapiens) (UniProt Q14671)
# T4 sequence: T1 sequence with L108M, Y109R, S112E
# [5] = target: T5, PUM1 PUF domain R3-MRG C935M + Q939G (UniProt Q14671)
# T5 sequence: T1 sequence with L108M, Y109R, S112G
# [6] = target: T6, PUM1 PUF domain R3-MRL C935M + Q939L (UniProt Q14671)
# T6 sequence: T1 sequence with L108M, Y109R, S112L
# [7] = target: T7, PUM1 PUF domain R3-MRT C935M + Q939T (UniProt Q14671)
# T7 sequence: T1 sequence with L108M, Y109R, S112T
# [8] = target: T8, PUM1 PUF domain R3-MRY C935M + Q939Y (UniProt Q14671)
# T8 sequence: T1 sequence with L108M, Y109R, S112Y
# [9] = target: T9, PUM1 PUF domain R3-MSN C935M + R936S + Q939N (UniProt Q14671)
# T9 sequence: T1 sequence with L108M, Y109S, S112N
# [10] = target: T10, PUM1 PUF domain R3-MSR C935M + R936S + Q939R (UniProt Q14671)
# T10 sequence: T1 sequence with L108M, Y109S, S112R
# [11] = target: T11, PUM1 PUF domain R3-MWP C935M + R936W + Q939P (UniProt Q14671)
# T11 sequence: T1 sequence with L108M, Y109W, S112P
# [12] = target: T12, PUM1 PUF domain R3-MWS C935M + R936W + Q939S (UniProt Q14671)
# T12 sequence: T1 sequence with L108M, Y109W
# [13] = target: T13, PUM1 PUF domain R3-NPR C935N + R936P + Q939R (Homo sapiens) (UniProt Q14671)
# T13 sequence: T1 sequence with L108N, Y109P, S112R
# [14] = target: T14, PUM1 PUF domain R3-NPV C935N + R936P + Q939V (UniProt Q14671)
# T14 sequence: T1 sequence with L108N, Y109P, S112V
# [15] = target: T15, PUM1 PUF domain R3-NSL C935N + R936S + Q939L (UniProt Q14671)
# T15 sequence: T1 sequence with L108N, Y109S, S112L
# [16] = target: T16, PUM1 PUF domain R3-PFV C935P + R936F + Q939V (UniProt Q14671)
# T16 sequence: T1 sequence with L108P, Y109F, S112V
# [17] = target: T17, PUM1 PUF domain R3-PHE C935P + R936H + Q939E (UniProt Q14671)
# T17 sequence: T1 sequence with L108P, Y109H, S112E
# [18] = target: T18, PUM1 PUF domain R3-PHQ C935P + R936H (UniProt Q14671)
# T18 sequence: T1 sequence with L108P, Y109H, S112Q
# [19] = target: T19, PUM1 PUF domain R3-PRE C935P + Q939E (UniProt Q14671)
# T19 sequence: T1 sequence with L108P, Y109R, S112E
# [20] = target: T20, PUM1 PUF domain R3-PWG C935P + R936W + Q939G (UniProt Q14671)
# T20 sequence: T1 sequence with L108P, Y109W, S112G
# [21] = target: T21, PUM1 PUF domain R3-PWH C935P + R936W + Q939H (UniProt Q14671)
# T21 sequence: T1 sequence with L108P, Y109W, S112H
# [22] = target: T22, PUM1 PUF domain R3-PWL C935P + R936W + Q939L (UniProt Q14671)
# T22 sequence: T1 sequence with L108P, Y109W, S112L
# [23] = target: T23, PUM1 PUF domain R3-PWN C935P + R936W + Q939N (UniProt Q14671)
# T23 sequence: T1 sequence with L108P, Y109W, S112N
# [24] = target: T24, PUM1 PUF domain R3-PWS C935P + R936W + Q939S (Homo sapiens) (UniProt Q14671)
# T24 sequence: T1 sequence with L108P, Y109W
# [25] = target: T25, PUM1 PUF domain R3-PWV C935P + R936W + Q939V (UniProt Q14671)
# T25 sequence: T1 sequence with L108P, Y109W, S112V
# [26] = target: T26, PUM1 PUF domain R3-QPE C935Q + R936P + Q939E (UniProt Q14671)
# T26 sequence: T1 sequence with L108Q, Y109P, S112E
# [27] = target: T27, PUM1 PUF domain R3-QPR C935Q + R936P + Q939R (UniProt Q14671)
# T27 sequence: T1 sequence with L108Q, Y109P, S112R
# [28] = target: T28, PUM1 PUF domain R3-QRS C935Q + Q939S (UniProt Q14671)
# T28 sequence: T1 sequence with L108Q, Y109R
# [29] = target: T29, PUM1 PUF domain R3-QRV C935Q + Q939V (UniProt Q14671)
# T29 sequence: T1 sequence with L108Q, Y109R, S112V
# [30] = target: T30, PUM1 PUF domain R3-RAA C935R + R936A + Q939A (UniProt Q14671)
# T30 sequence: T1 sequence with L108R, Y109A, S112A
# [31] = target: T31, PUM1 PUF domain R3-RAC C935R + R936A + Q939C (UniProt Q14671)
# T31 sequence: T1 sequence with L108R, Y109A, S112C
# [32] = target: T32, PUM1 PUF domain R3-RAD C935R + R936A + Q939D (UniProt Q14671)
# T32 sequence: T1 sequence with L108R, Y109A, S112D
# [33] = target: T33, PUM1 PUF domain R3-RAF C935R + R936A + Q939F (UniProt Q14671)
# T33 sequence: T1 sequence with L108R, Y109A, S112F
# [34] = target: T34, PUM1 PUF domain R3-RAG C935R + R936A + Q939G (UniProt Q14671)
# T34 sequence: T1 sequence with L108R, Y109A, S112G
# [35] = target: T35, PUM1 PUF domain R3-RAQ C935R + R936A (UniProt Q14671)
# T35 sequence: T1 sequence with L108R, Y109A, S112Q
# [36] = target: T36, PUM1 PUF domain R3-RAR C935R + R936A + Q939R (UniProt Q14671)
# T36 sequence: T1 sequence with L108R, Y109A, S112R
# [37] = target: T37, PUM1 PUF domain R3-RAS C935R + R936A + Q939S (Homo sapiens) (UniProt Q14671)
# T37 sequence: T1 sequence with L108R, Y109A
sequence,measurement,setting,value
GGCUAGAACUAGUGGAUCCCCCGGCGCCCGGCGGCUCGAGCCCGGGUAAGUGUAACUAGUCUGCAUGCCGCCGGGCGCCAUGCCUGCAGGUCGACUCUAGAAAACAUG,binding signal (log2 enrichment (interaction score)),[1],-6.57
same,binding signal (log2 enrichment (interaction score)),[2],< -8.71
same,binding signal (log2 enrichment (interaction score)),[3],< -6.44
same,binding signal (log2 enrichment (interaction score)),[4],-1.73
same,binding signal (log2 enrichment (interaction score)),[5],-6.34
same,binding signal (log2 enrichment (interaction score)),[6],< -7.5
same,binding signal (log2 enrichment (interaction score)),[7],< -7.81
same,binding signal (log2 enrichment (interaction score)),[8],< -6.83
same,binding signal (log2 enrichment (interaction score)),[9],-3.47
same,binding signal (log2 enrichment (interaction score)),[10],< -9.99
same,binding signal (log2 enrichment (interaction score)),[11],< -7.98
same,binding signal (log2 enrichment (interaction score)),[12],< -7.31
same,binding signal (log2 enrichment (interaction score)),[13],-1.91
same,binding signal (log2 enrichment (interaction score)),[14],< -7.77
same,binding signal (log2 enrichment (interaction score)),[15],< -8
same,binding signal (log2 enrichment (interaction score)),[16],< -8.35
same,binding signal (log2 enrichment (interaction score)),[17],-4.61
same,binding signal (log2 enrichment (interaction score)),[18],-2.77
same,binding signal (log2 enrichment (interaction score)),[19],< -8.19
same,binding signal (log2 enrichment (interaction score)),[20],< -7.16
same,binding signal (log2 enrichment (interaction score)),[21],< -8.1
same,binding signal (log2 enrichment (interaction score)),[22],-4.02
same,binding signal (log2 enrichment (interaction score)),[23],-3.38
same,binding signal (log2 enrichment (interaction score)),[24],-1.38
same,binding signal (log2 enrichment (interaction score)),[25],< -6.89
same,binding signal (log2 enrichment (interaction score)),[26],< -8.92
same,binding signal (log2 enrichment (interaction score)),[27],-2.74
same,binding signal (log2 enrichment (interaction score)),[28],< -8.11
same,binding signal (log2 enrichment (interaction score)),[29],< -6.88
same,binding signal (log2 enrichment (interaction score)),[30],-5.35
same,binding signal (log2 enrichment (interaction score)),[31],< -6.6
same,binding signal (log2 enrichment (interaction score)),[32],< -9.27
same,binding signal (log2 enrichment (interaction score)),[33],< -8.42
same,binding signal (log2 enrichment (interaction score)),[34],-5.09
same,binding signal (log2 enrichment (interaction score)),[35],< -6.36
same,binding signal (log2 enrichment (interaction score)),[36],-4.49
same,binding signal (log2 enrichment (interaction score)),[37],-1.52

# Pulled one by one from above (two):
sequence,measurement,setting,value
GGCUAGAACUAGUGGAUCCCCCGGCGCCCGGCGGCUCGAGCCCGGGUAAGUGUAACUAGUCUGCAUGCCGCCGGGCGCCAUGCCUGCAGGUCGACUCUAGAAAACAUG,binding signal (log2 enrichment (interaction score)),[17],-4.61
same,binding signal (log2 enrichment (interaction score)),[7],< -7.81
